Results: the supplement of paper PMC10849652
The list shows a part of the results.

Chains of the proteins cited; added tags and fusions are not shown. Lines headed by an entry give the natural chain unless they say otherwise; changes in a name come on top.
UniProt Q9UJN7: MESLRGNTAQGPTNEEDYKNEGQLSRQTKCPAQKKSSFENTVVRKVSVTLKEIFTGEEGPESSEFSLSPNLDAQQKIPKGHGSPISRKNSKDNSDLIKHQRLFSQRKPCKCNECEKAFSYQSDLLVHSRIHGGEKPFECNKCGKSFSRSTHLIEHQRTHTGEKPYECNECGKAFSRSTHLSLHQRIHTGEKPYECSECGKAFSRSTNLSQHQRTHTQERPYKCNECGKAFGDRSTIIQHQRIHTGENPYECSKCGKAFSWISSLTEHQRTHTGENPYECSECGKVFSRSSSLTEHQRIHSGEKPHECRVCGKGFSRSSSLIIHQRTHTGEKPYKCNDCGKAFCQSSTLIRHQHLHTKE
UniProt A8K8V0: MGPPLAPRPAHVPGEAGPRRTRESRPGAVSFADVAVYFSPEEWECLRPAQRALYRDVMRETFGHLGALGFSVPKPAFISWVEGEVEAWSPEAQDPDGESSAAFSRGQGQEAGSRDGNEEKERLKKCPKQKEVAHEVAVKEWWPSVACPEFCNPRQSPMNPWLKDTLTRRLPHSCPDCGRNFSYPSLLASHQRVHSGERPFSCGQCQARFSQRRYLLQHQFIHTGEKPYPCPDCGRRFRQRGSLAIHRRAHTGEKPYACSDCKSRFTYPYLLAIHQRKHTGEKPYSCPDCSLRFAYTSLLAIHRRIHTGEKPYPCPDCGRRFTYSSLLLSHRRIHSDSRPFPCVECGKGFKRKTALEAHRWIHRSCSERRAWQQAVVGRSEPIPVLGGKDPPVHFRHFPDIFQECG
UniProt Q8N720: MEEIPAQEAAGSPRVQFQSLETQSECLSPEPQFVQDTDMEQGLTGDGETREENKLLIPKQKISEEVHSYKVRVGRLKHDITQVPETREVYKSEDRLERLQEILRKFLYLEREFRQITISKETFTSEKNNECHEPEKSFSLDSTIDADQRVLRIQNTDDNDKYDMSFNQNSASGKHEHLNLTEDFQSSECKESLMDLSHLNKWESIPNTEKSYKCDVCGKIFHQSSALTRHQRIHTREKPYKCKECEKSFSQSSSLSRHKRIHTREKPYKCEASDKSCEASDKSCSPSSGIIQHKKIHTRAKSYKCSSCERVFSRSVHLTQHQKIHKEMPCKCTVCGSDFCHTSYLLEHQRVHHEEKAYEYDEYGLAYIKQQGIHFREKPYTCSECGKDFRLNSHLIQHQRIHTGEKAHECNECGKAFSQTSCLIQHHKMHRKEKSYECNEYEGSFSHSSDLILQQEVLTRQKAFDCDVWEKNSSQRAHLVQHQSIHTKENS
UniProt Q96KM6: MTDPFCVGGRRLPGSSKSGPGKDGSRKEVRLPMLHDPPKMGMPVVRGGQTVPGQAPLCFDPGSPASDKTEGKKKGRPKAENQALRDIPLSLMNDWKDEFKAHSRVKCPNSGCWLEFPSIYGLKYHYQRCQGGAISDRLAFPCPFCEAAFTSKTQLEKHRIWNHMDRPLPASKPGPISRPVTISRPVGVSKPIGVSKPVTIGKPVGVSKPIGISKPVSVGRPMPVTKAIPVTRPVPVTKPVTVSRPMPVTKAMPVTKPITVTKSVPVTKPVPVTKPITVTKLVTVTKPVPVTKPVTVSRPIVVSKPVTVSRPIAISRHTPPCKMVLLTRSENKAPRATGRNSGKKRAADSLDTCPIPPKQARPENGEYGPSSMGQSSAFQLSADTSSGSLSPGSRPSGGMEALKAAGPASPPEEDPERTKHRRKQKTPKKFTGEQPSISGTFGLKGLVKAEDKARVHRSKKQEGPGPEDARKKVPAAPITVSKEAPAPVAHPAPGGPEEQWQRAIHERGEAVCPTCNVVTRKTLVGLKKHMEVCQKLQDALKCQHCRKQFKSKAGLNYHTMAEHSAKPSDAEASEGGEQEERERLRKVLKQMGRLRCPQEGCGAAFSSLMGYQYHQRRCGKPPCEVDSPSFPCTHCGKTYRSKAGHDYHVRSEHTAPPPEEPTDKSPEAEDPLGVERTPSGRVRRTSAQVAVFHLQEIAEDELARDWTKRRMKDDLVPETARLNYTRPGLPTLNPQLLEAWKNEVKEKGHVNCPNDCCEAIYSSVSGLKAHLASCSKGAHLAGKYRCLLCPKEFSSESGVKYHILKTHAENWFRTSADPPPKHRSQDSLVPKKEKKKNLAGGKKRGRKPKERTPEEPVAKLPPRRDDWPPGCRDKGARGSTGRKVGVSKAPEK
UniProt Q8TAU3: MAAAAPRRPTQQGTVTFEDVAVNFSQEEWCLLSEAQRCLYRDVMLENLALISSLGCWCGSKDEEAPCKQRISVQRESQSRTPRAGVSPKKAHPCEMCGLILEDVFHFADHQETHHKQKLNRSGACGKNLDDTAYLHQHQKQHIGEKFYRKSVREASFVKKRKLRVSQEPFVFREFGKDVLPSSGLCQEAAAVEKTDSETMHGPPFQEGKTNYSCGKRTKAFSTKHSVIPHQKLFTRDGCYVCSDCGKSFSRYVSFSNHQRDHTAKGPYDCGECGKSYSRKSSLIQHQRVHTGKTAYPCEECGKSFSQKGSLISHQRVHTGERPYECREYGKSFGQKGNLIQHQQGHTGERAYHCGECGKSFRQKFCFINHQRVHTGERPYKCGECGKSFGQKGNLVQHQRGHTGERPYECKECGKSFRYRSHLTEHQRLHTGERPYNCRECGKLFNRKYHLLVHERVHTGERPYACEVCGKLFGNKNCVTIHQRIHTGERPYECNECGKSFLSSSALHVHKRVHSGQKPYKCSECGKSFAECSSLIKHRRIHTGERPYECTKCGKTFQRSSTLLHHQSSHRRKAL
UniProt Q0VGE8: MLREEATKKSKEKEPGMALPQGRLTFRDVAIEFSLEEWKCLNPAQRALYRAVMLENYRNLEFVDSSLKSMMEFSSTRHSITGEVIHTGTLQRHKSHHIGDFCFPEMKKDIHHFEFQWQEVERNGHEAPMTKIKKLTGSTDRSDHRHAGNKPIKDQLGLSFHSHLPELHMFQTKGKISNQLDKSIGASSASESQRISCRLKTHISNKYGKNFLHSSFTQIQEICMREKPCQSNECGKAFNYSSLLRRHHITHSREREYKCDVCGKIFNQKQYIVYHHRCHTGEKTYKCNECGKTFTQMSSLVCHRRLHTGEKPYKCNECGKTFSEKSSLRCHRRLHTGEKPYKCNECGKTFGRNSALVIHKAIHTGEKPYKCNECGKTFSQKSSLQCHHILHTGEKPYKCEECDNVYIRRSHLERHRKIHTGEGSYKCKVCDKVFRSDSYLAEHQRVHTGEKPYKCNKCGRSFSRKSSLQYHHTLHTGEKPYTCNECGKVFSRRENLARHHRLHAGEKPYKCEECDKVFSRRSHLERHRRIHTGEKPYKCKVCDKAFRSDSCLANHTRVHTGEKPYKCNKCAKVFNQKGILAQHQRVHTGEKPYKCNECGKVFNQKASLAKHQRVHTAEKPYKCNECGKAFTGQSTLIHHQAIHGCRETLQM
UniProt Q96AP4: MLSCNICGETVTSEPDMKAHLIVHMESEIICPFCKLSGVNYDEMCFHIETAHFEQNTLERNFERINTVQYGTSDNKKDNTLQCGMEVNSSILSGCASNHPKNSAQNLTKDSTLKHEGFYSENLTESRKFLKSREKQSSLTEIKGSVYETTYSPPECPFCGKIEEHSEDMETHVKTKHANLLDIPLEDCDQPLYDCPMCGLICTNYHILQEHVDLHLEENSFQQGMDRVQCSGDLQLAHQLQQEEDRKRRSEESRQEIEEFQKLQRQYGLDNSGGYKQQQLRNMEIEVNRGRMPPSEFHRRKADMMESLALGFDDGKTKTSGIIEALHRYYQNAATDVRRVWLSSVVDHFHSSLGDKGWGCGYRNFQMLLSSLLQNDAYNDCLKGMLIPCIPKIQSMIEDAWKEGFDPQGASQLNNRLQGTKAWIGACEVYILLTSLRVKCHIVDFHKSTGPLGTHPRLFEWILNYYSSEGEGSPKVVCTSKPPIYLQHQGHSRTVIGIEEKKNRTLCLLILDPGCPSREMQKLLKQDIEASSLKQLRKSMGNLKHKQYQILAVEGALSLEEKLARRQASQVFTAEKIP
UniProt Q99676: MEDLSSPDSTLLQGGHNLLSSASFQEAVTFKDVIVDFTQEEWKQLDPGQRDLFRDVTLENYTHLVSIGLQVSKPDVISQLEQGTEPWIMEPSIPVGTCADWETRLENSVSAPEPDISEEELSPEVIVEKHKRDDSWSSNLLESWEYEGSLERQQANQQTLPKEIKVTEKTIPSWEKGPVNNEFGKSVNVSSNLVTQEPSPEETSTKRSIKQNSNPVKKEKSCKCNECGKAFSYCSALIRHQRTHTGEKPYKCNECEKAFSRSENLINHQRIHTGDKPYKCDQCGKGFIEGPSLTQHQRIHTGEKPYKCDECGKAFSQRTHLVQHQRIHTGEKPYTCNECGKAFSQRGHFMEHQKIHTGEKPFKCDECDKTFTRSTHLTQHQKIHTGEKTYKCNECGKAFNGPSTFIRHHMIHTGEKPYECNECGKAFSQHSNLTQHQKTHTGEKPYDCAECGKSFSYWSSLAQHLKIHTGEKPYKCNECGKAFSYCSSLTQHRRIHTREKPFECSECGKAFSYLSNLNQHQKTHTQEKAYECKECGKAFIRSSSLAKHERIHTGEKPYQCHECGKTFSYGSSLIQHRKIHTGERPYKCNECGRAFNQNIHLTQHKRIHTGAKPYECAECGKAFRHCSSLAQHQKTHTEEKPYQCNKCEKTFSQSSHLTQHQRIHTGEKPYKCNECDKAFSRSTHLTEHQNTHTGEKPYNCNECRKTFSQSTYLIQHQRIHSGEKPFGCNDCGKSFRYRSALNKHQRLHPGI
UniProt O15015: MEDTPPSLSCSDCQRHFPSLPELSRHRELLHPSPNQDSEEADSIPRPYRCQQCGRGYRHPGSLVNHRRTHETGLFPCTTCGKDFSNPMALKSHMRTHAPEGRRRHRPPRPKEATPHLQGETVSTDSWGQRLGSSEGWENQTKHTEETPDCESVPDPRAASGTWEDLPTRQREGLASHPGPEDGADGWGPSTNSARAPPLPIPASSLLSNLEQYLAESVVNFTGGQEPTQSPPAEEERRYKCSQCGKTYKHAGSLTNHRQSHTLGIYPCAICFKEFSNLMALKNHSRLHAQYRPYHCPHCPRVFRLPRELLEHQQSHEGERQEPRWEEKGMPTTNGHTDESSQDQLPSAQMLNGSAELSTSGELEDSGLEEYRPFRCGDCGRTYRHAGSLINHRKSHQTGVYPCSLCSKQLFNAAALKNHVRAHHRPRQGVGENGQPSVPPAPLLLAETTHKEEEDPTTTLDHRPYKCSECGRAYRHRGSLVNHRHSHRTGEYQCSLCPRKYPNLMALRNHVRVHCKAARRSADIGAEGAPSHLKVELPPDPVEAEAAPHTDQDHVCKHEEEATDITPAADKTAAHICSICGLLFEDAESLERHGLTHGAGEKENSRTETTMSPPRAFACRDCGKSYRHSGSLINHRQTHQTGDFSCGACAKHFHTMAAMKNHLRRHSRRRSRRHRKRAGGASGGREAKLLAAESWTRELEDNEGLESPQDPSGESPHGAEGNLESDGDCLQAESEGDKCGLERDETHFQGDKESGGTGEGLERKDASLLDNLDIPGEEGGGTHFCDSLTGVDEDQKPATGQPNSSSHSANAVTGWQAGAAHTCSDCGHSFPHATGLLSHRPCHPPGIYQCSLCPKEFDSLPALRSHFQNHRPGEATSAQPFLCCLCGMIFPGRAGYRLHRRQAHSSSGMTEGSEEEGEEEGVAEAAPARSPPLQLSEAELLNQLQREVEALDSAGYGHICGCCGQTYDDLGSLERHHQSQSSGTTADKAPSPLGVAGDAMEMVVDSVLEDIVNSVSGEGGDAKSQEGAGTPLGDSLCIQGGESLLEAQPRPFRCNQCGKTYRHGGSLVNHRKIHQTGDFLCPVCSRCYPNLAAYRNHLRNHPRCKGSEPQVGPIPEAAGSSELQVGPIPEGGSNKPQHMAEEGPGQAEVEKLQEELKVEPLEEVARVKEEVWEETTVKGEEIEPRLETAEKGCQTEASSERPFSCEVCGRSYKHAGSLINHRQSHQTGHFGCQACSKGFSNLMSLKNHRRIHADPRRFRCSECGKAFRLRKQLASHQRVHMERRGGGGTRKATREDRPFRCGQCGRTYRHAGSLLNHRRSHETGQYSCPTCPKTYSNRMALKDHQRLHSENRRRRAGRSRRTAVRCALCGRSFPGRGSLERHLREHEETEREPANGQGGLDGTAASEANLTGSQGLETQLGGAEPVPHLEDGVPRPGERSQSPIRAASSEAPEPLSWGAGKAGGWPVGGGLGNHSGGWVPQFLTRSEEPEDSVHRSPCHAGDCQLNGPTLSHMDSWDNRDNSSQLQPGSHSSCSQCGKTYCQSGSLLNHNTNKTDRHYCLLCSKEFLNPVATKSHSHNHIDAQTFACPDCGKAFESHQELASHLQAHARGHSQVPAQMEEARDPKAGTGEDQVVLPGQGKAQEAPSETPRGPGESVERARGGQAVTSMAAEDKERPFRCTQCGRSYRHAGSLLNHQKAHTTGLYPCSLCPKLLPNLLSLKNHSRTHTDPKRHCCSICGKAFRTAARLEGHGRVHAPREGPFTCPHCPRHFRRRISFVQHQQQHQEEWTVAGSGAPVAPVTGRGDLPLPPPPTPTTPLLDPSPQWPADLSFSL

Tests used:
Assay in all cases: log2 fold change, soluble protein after heating vs DMSO (PISA); higher = thermal stabilisation; K562 lysate, 10 uM; active = over 0.2 and 3.5 SD of the protein, either way, in both replicates (recomputed)
[1] = compound: CC1=C(C2=C(C=C1)C(=O)C3=CC=CC=C3N2CCCN)C
Procedure, shortened: (§1)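 A 30 min treatment with 10 μM compound was applied to crude K562 extract at 1 mg/mL protein in PBS pH 7.4 with 1 mM MgCl2. Heating for 3 min spanned 48°C-58°C, after which aliquots were pooled, adjusted to 0.5% NP-40 at 4°C and spun at 21,000xg for 90 min. TMTpro 16plex LC-MS/MS of the supernatant, with channel sums equalised, gave values recorded as log-two fold change in thermal stability against solvent controls, from duplicates.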

[2] = compound: C1=CC=C(C=C1)C2=NC(=C(N2)C3=CC=NC=C3)C4=CC(=C(C=C4)Cl)O
Procedure, shortened: as §1

[3] = compound: C1CCN(C1)C(=O)NC2=CC=CC(=C2)NC3=NC=C(C(=N3)NCCC4=CN=CN4)Br
Procedure, shortened: as §1

[4] = compound: C1CN(CCC1(CC2=CC=C(C=C2)Cl)N)C3=NC=NC4=C3C=CN4
Procedure, shortened: as §1

IRAK-1-4 Inhibitor I = compound: C1COCCN1CCN2C3=CC=CC=C3N=C2NC(=O)C4=CC(=CC=C4)[N+](=O)[O-] [IRAK-1-4 Inhibitor I]
Procedure, shortened: as §1

ralimetinib = compound: CC(C)(C)Cn1c(N)nc2ccc(-c3[nH]c(C(C)(C)C)nc3-c3ccc(F)cc3)nc21 [ralimetinib]
Procedure, shortened: as §1

[5] = compound: CC(C)(O)CC(=O)NCCn1ccc2ncnc(Nc3ccc(Oc4cccc(C(F)(F)F)c4)c(Cl)c3)c21
Procedure, shortened: as §1

[6] = compound: CC1=C(C=C(C=C1)NC(=O)C2=CC(=CC=C2)C(C)(C)C#N)NC3=CC4=C(C=C3)N=CN(C4=O)C
Procedure, shortened: as §1

[7] = compound: CC1=C(C=C(C=C1)NC(=O)C2=CC(=CC=C2)N(C)C)NC(=O)C3=CC=C(C=C3)O
Procedure, shortened: as §1

[8] = compound: CC(=O)c1cnc2ccc(-c3cc(Cl)c(O)c(Cl)c3)nc2c1N[C@H]1CC[C@H](CN(C)C)CC1
Procedure, shortened: as §1

[9] = compound: CC1=CC=C(C=C1)SC2=C3C=C(SC3=CN=C2)C(=O)N
Procedure, shortened: as §1

[10] = compound: CC1=C(C(CC(=O)N1)C2=CC=C(C=C2)C(F)(F)F)C(=O)NC3=C(C=C4C(=C3)C=NN4)F
Procedure, shortened: as §1

[11] = compound: C/C(=N\NC(=O)C1=CC(=CC=C1)S(=O)(=O)N2CCOCC2)/C3=C(C=CC(=C3)Cl)O
Procedure, shortened: as §1

[12] = compound: C1=CC2=C(C=CC(=C2)/C=C\3/C(=O)NC(=NCC4=CC=CS4)S3)N=C1
Procedure, shortened: as §1

[13] = compound: C1=CC=C2C(=C1)C3=NNC4=CC=CC(=C43)C2=O
Procedure, shortened: as §1

[14] = compound: C1=CC2=NC=CN=C2C=C1/C=C/3\C(=O)NC(=O)S3
Procedure, shortened: as §1

ibrutinib = compound: C=CC(=O)N1CCC[C@@H](n2nc(-c3ccc(Oc4ccccc4)cc3)c3c(N)ncnc32)C1 [ibrutinib]
Procedure, shortened: as §1

Measured: log2 fold change

ZNF146 (UniProt Q15072)
inactive: [1] -0.187

ZGRF1 (UniProt Q86YA3)
inactive: [2] 0.069 | [3] 0.127 | [4] 0.061 | IRAK-1-4 Inhibitor I -0.116 | ralimetinib -0.022 | [5] -0.127 | [1] 0.023 | [6] -0.026 | [7] 0.044

ZNF652 (UniProt Q9Y2D9)
inactive: [6] 0.042

Quoted at random: 2 records from the list
ZNF652 (UniProt Q9Y2D9)
inactive: [6] 0.042

ZNF146 (UniProt Q15072)
inactive: [1] -0.187

Further entries

ZNF391 (UniProt Q9UJN7)
inactive: [3] -0.063 | [4] 0.177

ZNF785 (UniProt A8K8V0)
inactive: [8] 0.239 | [1] 0.22 | [9] 0.083

ZNF552 (UniProt Q9H707)
inactive: [10] 0.135

ZRSR2 (UniProt Q15696)
inactive: [6] 0.001

ZNF618 (UniProt B1ALC2)
inactive: [11] -0.036 | [12] 0.065 | [13] -0.09 | [3] -0.027 | [4] 0.052 | [8] -0.107 | [10] 0.008 | [1] -0.053 | [6] 0.027 | [9] -0.052

ZNF324 (UniProt O75467)
inactive: [2] -0.048 | IRAK-1-4 Inhibitor I -0.012 | [8] 0.022 | ralimetinib -0.082 | [5] -0.035 | [10] 0.033 | [6] 0.105 | [7] 0.049 | [9] -0.037

ZNF655 isoform 2 (UniProt Q8N720)
inactive: [11] 0.034 | [12] -0.553 | [13] -0.141

ZNF813 (UniProt Q6ZN06)
inactive: [10] -0.03 | [1] 0

ZNF512B (UniProt Q96KM6)
inactive: [2] -0.016 | IRAK-1-4 Inhibitor I -0.007 | [8] 0.018 | ralimetinib 0 | [5] -0.042 | [7] 0.048 | [9] -0.027

ZNF444 (UniProt Q8N0Y2)
inactive: [14] 0.007 | [2] 0.014 | IRAK-1-4 Inhibitor I 0.033 | ibrutinib 0.355 | ralimetinib -0.094 | [5] -0.031 | [1] 0.041 | [6] 0.117 | [7] -0.13

ZSCAN26 (UniProt Q16670)
inactive: [6] 0.007

ZNF280D (UniProt Q6N043)
inactive: [2] 0.031 | IRAK-1-4 Inhibitor I -0.139 | [8] 0.026 | ralimetinib -0.106 | [5] 0.577 | [7] -0.012 | [9] -0.171

ZNF417 (UniProt Q8TAU3)
inactive: [14] 0.104 | ibrutinib 0.026

ZNF746 isoform 2 (UniProt Q6NUN9)
inactive: [2] -0.034 | IRAK-1-4 Inhibitor I 0.184 | ralimetinib -0.248 | [5] -0.032 | [10] -0.124 | [7] 0.005

ZNF816 (UniProt Q0VGE8)
inactive: [2] 0.013 | IRAK-1-4 Inhibitor I -0.068 | ralimetinib -0.059 | [5] -0.017 | [10] -0.035 | [6] -0.164 | [7] -0.021

ZNF562 (UniProt Q6V9R5)
inactive: [1] -0.116

ZNF770 (UniProt Q6IQ21)
inactive: [6] -0.131

ZNF280A, A0A0G2JN84
inactive: [6] 0.163

ZUP1 (UniProt Q96AP4)
inactive: [1] 0.052

ZNF184 (UniProt Q99676)
inactive: [2] -0.005 | IRAK-1-4 Inhibitor I -0.006 | ralimetinib 0.034 | [5] -0.024 | [10] 0.148 | [1] -0.038 | [6] -0.039 | [7] -0.007

ZNF646 (UniProt O15015)
inactive: [2] 0.068 | IRAK-1-4 Inhibitor I 0.076 | ralimetinib -0.106 | [5] -0.322 | [6] 0.083 | [7] -0.057

ZNF708 (UniProt P17019)
inactive: [11] -0.09 | [12] 0.117 | [13] -0.037 | [3] 0.006 | [4] -0.166

ZNF100 (UniProt Q8IYN0)
inactive: [14] 0.304 | ibrutinib 0.155 | [6] 0.008
